Results are given in words; binding and its absence hold for the method and conditions named. In cells and extracts the contact can be indirect. Tags and fused reporters may be left off the sequences shown.
Biological target: T1, C15orf39-GFP (human) (UniProt Q6ZRI6)
T1 sequence: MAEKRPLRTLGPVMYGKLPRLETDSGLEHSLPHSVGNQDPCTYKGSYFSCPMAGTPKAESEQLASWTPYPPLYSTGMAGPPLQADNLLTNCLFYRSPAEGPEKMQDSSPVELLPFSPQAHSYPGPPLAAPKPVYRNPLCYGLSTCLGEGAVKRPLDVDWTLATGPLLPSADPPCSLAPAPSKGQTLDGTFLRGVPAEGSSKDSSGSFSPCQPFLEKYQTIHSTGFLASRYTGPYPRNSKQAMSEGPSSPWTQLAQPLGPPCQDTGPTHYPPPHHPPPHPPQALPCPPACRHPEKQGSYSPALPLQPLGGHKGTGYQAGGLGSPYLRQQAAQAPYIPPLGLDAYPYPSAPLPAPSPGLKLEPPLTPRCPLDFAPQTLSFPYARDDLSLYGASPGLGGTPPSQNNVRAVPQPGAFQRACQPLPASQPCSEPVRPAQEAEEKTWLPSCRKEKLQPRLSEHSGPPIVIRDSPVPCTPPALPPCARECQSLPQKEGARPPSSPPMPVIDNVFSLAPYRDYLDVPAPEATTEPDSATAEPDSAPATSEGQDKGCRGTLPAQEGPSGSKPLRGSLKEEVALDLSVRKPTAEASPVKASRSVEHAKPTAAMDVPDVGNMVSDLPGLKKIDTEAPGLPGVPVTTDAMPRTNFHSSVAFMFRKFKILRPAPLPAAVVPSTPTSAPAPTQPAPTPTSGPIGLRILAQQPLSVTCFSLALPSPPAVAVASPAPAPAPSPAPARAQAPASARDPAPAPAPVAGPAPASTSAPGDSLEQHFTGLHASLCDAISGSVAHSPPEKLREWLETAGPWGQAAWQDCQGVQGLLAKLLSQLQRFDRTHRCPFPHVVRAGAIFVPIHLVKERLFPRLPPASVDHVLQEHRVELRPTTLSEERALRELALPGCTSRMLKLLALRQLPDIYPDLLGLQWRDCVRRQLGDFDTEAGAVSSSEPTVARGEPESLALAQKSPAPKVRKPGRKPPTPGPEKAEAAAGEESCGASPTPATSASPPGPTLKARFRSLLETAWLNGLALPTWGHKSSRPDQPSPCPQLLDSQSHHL
Test: co-IP; HMC3 cells co-transfected with C15orf39-GFP and Flag-tagged PRMT2 constructs; NP40 lysis buffer; anti-GFP antibody on protein A Dynabeads added to lysate, 1 h at RT; five washes; western blot with anti-Flag antibody

B1: PRMT2 (1–95), Flag-tagged (domain or fragment, UniProt P55345 1-95)
chain: MATSGDCPRSESQGEEPAECSEAGLLQEGVQPEEFVAIADYAATDETQLSFLRGEKILILRQTTADWWWGERAGCCGYIPANHVGKHVDEYDPED
  binding: no binding
